Data published in doi:10.1101/2020.01.02.893370 (bioRxiv, 2020).

Experiments:
Assay in all cases: EMSA
[1] = test system: sigma70 (RpoD) + RNAP core K74A; settings: Mg2+, not significantly changed vs WT
[2] = test system: sigma70 (RpoD) + RNAP core 4CS C70S,C72S,C85S,C88S; settings: Mg2+, not significantly changed vs WT
[3] = test system: sigma70 (RpoD) + RNAP core K74A-K87A; settings: Mg2+, not significantly changed vs WT
[4] = test system: sigma70 (RpoD) + RNAP core K87A; settings: Mg2+, not significantly changed vs WT
[5] = test system: sigma28 (FliA) + RNAP core K74A; settings: Mg2+, lower RPo, higher RPc ratio
[6] = test system: sigma28 (FliA) + RNAP core K74A-K87A; settings: Mg2+, lower RPo, higher RPc ratio
[7] = test system: sigma28 (FliA) + RNAP core K87A; settings: Mg2+, lower RPo, higher RPc ratio

| Sequence | binding result [1] | binding result [2] | binding result [3] | binding result [4] | binding result [5] | binding result [6] | binding result [7] |
| --- | --- | --- | --- | --- | --- | --- | --- |
| CCCGCCGACAGGTTTCCCGACTGGAAAGCGGGCAGTGAGCGCAACGCAATTAATGTGAGTTAGCTCACTCATTAGGCACCCCAGGCTTTACACTTTATGCTTCCGGCTCGTATAATGTGTGGAATTGTGAGCGGATAACAATTTCACACAGGAAACAGCTATGACCATGGGCGCGG (double strand) [lacUV5p] | binds | binds | binds | binds |  |  |  |
| CCCGCCGTTTTTAATAGCGGGAATAAGGGGCAGAGAAAAGAGTATTTCGGCGACTAACAAAAAATGGCTGTTTTTGAAAAAAATTCTAAAGGTTGTTTTACGACAGACGATAACAGGGTTGACGGCGATTGAGCCGACGGGTGGAAACCCAATACGTAATCAACGACTGGGCGCGG (double strand) [fliCp] |  |  |  |  | binds more weakly | binds more weakly | binds more weakly |

The exact form of at least one protein or probe is not confirmed. For some of these results: Weaker means in comparison with the reference protein, sequence or condition of that experiment. At least one verdict was read from the data and is not stated in words by the source.
